We go through one molecule from US20260199458A1 (INCENDIA THERAPEUTICS, published 2026).

No constants are given. Whether binding was seen depends on the method and setting. Some results given as binding are weak or reduced against the parent protein; the word gives no strength. Tags and fused reporters may be left off the sequences shown.

This assay concerns the target BT549. Put plainly: flow cytometry on BT549 cells (DDR1 low/DDR2 high), percent 9H-1-binding cells at 0.1, 0.5, 1.0, 10.0 and 100.0 µg/mL 9H-1. For orientation: A flow cytometer gives signals particle by particle.

B1: 9H-1 (humanized DDR1-9, WT IgG1 Fc) (antibody, V domains shown)
VH: QVQLVESGGRVVQPGRSLRLSCTASGFSLNRYYMLWVRQAPGKGLEWIGTISYGDTTYYASWAKGRFTISRDNSKNTLYLQMNSLRAEDTAVYYCARADTGDNGYLGLQLWGQGTLVTVSS
VL: DIQMTQSPSSVSASVGDRVTITCQASQSIGSVLAWYQQKPGKAPKLLISGVFDLASGVPSRFSGSGSGTDFTLTISSLQPEDFATYYCQYIPYGSSPFGGGTKVEIKR
notes: In some embodiments the heavy chain lacks the terminal lysine; also called PRTH-101; humanized DDR1-9 (9H-1)_1 WT IgG1 Fc
On to B1, for which the binding entry is “binds”.
